Source: patent US20250186594A1
No constants are given. Whether binding was seen depends on the method and setting. Some binding calls cover weakened binding; strength is not graded here. Where a sequence is shown, tags or fusion partners need not be part of it.

Amino acid sequences for entries named in this document (tags omitted). A change or cut given only in a name is not applied to a line headed by its entry.
UniProt Q14116: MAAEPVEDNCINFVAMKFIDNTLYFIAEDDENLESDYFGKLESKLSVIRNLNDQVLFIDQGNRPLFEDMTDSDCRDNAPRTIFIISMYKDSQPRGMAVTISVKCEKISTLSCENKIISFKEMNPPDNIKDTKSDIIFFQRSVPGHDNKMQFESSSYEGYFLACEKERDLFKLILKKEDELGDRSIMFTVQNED

Assays:
[1] = target: T1, IL-18Rα/β heterodimer (Fc fused human IL-18Rα mixed with Fc fused human IL-18Rβ) (human) (UniProt Q13478+O95256); experiment: SPR (Biacore), Fc fused human IL-18Rα and IL-18Rβ (IL-18RAP) pre-mixed and captured as heterodimer, IL-18 polypeptide as analyte in a dilution series (concentrations not printed on the sheet)
T1 sequence (looked up) 1: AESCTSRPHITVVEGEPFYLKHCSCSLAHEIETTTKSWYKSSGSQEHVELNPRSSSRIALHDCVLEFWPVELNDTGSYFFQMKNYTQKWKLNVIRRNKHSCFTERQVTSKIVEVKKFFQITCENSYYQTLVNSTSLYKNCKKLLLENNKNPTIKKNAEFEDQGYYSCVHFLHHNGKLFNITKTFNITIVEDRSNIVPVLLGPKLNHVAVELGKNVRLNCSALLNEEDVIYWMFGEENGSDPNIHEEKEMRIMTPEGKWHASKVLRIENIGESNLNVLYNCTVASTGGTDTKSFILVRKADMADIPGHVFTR
T1 sequence (looked up) 2: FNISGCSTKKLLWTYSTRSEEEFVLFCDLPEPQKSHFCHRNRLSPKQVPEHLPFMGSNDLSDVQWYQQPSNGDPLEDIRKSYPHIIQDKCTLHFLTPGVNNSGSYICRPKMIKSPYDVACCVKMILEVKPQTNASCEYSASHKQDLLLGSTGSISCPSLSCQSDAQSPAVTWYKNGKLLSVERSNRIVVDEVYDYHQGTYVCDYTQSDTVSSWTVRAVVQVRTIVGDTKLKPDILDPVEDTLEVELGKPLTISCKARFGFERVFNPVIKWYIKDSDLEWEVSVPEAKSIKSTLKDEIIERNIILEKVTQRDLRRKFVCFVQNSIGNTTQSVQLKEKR

[2] = target: T2, Fc fused human IL-18Rα (human) (UniProt Q13478); experiment: SPR (Biacore), Fc fused human IL-18Rα captured, IL-18 polypeptide as analyte in a dilution series (concentrations not printed on the sheet)
T2 sequence (looked up): T1 sequence (looked up) 1

| binding [1] | binding [2] | Substance |
| --- | --- | --- |
| binds | binds | Native IL-18 wild-type (SEQ ID NO: 1, native sequence) (from UniProt Q14116 37-193) (ligand) |
|  | binds | IL-18 variant SEQ ID NO: 57 (E6K, C38S, K53A) (from UniProt Q14116 37-193) (ligand) |
